{
  "source": "PubChem BioAssay AID220",
  "about": "(DTP/NCI, 2004)",
  "tested_on": "CD8F1 mice, subcutaneous mammary adenocarcinoma, T/C%",
  "assay": "NCI In Vivo Anticancer Drug Screen. Data for tumor model Mammary Adenocarcinoma CD8F1 (subcutaneous) in CD8F1",
  "conditions": "T/C endpoint: median tumor weight (est.), schedule: Q07DX005 (ip), vehicle: saline, higher T/C = larger tumour",
  "method": "The antitumor activity of compounds was measured in mice bearing transplantable tumors. Survival or tumor size were measured and the results are expressed as the measurement made in the treated group (T) divided by the measurement made in the vehicle treated control group (C). The tumor model used in this assay is Mammary Adenocarcinoma CD8F1 (subcutaneous) in CD8F1",
  "key": {"[1]": {"conditions": "dose: 0.5 mg/kg/injection, evaluated on day 30"}, "[2]": {"conditions": "dose: 4.0 mg/kg/injection, evaluated on day 30"}},
  "note": "The list is a part of this screen's results and no random one: its compounds were picked by chemical class. Other doses and runs of a compound may be missing. T/C: endpoint of the treated group in % of that of the vehicle group. Schedules are NCI's codes, read here as Q, the interval in days (D) or hours (H), X, the number of doses. Some T/C values are marked as having no survivor count here; that says nothing about deaths at the dose. Some entries hold several experiments; their values stand side by side, smallest first.",
  "data": [
    {"compound": "CC(=O)OCC12CCC(C)=CC1OC1C(O)C(O)C2(C)C12CO2", "note": "(stereo not drawn)", "values": [
      {"measurement": "T/C", "setting": "[1]", "result": "37 % of control [survivor count not shown]"},
      {"measurement": "T/C", "setting": "[2]", "result": "13 % of control [survivor count not shown]"}
    ]},
    {"compound": "CC(=O)O[C@@H]1[C@@H](O)[C@H]2O[C@@H]3C=C(C)C(=O)[C@@H](O)[C@]3(CO)[C@]1(C)[C@]21CO1", "values": [
      {"measurement": "T/C", "setting": "dose: 0.4 mg/kg/injection, evaluated on day 30", "result": "101 % of control [survivor count not shown]"},
      {"measurement": "T/C", "setting": "dose: 1.6 mg/kg/injection, evaluated on day 30", "result": "62 % of control [survivor count not shown]"}
    ]},
    {"compound": "CC(=O)OCC12CC(O)C(C)=CC1OC1C(O)C(OC(C)=O)C2(C)C12CO2", "note": "(stereo not drawn)", "values": [
      {"measurement": "T/C", "setting": "dose: 0.31 mg/kg/injection, evaluated on day 30", "result": "54 % of control [survivor count not shown]"},
      {"measurement": "T/C", "setting": "dose: 0.62 mg/kg/injection, evaluated on day 30", "result": "89 % of control [survivor count not shown]"},
      {"measurement": "T/C", "setting": "dose: 1.25 mg/kg/injection, evaluated on day 30", "result": "71 % of control [survivor count not shown]"},
      {"measurement": "T/C", "setting": "dose: 2.5 mg/kg/injection, evaluated on day 30", "result": "34 % of control [survivor count not shown]"},
      {"measurement": "T/C", "setting": "dose: 5.0 mg/kg/injection, evaluated on day 30", "result": "60 % of control [survivor count not shown]"}
    ]},
    {"compound": "CC1=C[C@H]2O[C@@H]3[C@H](O)[C@@H](O)[C@](C)([C@@]2(CO)CC1)[C@@]31CO1", "values": [
      {"measurement": "T/C", "setting": "[1]", "result": "128 % of control [survivor count not shown]"},
      {"measurement": "T/C", "setting": "dose: 1.0 mg/kg/injection, evaluated on day 30", "result": "75 [survivor count not shown] and 113 % of control [survivor count not shown]"},
      {"measurement": "T/C", "setting": "dose: 2.0 mg/kg/injection, evaluated on day 30", "result": "93 [survivor count not shown] and 114 % of control [survivor count not shown]"},
      {"measurement": "T/C", "setting": "[2]", "result": "84 [survivor count not shown] and 89 % of control [survivor count not shown]"},
      {"measurement": "T/C", "setting": "dose: 8.0 mg/kg/injection, evaluated on day 30", "result": "59 % of control [survivor count not shown]"},
      {"measurement": "T/C", "setting": "dose: 16.0 mg/kg/injection, evaluated on day 30", "result": "45 % of control [survivor count not shown]"}
    ]},
    {"compound": "CC1=CC2OC3CC4OC(=O)/C=C/C=C/C(C(C)O)OCC/C(C)=C/C(=O)OCC2(CC1)C4(C)C31CO1", "note": "(stereo not drawn)", "values": [
      {"measurement": "T/C", "setting": "dose: 1.56 mg/kg/injection, evaluated on day 32", "result": "139 % of control [survivor count not shown]"},
      {"measurement": "T/C", "setting": "dose: 6.25 mg/kg/injection, evaluated on day 32", "result": "111 % of control [survivor count not shown]"},
      {"measurement": "T/C", "setting": "dose: 12.5 mg/kg/injection, evaluated on day 32", "result": "137 % of control [survivor count not shown]"}
    ]}
  ]
}
